Laboratory results: paper PMC7242444
Results are given in words; binding and its absence hold for the method and conditions named. Binding seen in cells or lysates may run through a third protein. Here binding means that the protein was enriched with, or labelled near, the bait; the list need not be complete.

Amino acid sequences for entries named in this document (tags omitted). A change or cut given only in a name is not applied to a line headed by its entry. Residues count along the entry.
UniProt Q5VZL5: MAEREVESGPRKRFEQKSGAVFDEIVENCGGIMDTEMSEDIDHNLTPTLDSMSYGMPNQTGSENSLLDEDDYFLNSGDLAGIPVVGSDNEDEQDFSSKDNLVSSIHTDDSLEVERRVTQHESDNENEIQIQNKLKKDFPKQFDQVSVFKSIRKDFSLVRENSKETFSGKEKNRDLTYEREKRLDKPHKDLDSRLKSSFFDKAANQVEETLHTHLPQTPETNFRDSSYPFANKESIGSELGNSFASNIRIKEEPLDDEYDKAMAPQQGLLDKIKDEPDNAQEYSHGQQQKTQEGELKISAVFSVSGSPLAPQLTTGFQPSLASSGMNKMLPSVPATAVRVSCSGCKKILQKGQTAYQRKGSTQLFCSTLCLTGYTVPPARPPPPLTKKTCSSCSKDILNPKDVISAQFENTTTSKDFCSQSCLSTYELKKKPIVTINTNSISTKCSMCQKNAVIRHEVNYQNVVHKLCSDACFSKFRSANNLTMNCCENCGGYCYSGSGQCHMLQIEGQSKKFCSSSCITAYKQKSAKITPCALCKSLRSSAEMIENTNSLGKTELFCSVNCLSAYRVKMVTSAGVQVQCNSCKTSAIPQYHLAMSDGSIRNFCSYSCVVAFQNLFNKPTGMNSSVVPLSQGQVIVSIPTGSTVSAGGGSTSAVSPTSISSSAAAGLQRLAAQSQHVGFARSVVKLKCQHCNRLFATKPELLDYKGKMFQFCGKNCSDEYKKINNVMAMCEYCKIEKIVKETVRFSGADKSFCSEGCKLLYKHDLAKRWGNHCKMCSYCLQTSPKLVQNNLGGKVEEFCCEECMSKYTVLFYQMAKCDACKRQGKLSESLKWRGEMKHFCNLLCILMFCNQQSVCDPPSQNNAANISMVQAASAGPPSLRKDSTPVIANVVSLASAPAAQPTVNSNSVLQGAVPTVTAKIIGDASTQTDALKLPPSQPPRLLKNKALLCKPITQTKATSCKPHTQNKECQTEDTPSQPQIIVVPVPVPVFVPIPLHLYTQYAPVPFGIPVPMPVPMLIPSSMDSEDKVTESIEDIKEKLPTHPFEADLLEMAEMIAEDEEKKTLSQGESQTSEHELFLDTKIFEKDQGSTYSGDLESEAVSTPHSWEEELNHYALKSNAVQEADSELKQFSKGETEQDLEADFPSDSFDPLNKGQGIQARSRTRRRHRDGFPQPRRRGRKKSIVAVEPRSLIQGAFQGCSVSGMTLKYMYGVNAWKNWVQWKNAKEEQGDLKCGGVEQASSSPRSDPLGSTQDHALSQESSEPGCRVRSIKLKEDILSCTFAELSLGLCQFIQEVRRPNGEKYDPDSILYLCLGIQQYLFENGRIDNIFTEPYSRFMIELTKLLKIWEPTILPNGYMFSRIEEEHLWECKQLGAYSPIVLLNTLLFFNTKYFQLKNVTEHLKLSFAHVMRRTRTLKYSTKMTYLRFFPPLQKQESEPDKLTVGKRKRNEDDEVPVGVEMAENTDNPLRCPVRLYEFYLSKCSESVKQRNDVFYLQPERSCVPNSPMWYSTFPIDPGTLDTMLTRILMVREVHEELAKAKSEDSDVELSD
GFP-ZMYM4: residues 33-1548 of Q5VZL5
UniProt Q9ULL5: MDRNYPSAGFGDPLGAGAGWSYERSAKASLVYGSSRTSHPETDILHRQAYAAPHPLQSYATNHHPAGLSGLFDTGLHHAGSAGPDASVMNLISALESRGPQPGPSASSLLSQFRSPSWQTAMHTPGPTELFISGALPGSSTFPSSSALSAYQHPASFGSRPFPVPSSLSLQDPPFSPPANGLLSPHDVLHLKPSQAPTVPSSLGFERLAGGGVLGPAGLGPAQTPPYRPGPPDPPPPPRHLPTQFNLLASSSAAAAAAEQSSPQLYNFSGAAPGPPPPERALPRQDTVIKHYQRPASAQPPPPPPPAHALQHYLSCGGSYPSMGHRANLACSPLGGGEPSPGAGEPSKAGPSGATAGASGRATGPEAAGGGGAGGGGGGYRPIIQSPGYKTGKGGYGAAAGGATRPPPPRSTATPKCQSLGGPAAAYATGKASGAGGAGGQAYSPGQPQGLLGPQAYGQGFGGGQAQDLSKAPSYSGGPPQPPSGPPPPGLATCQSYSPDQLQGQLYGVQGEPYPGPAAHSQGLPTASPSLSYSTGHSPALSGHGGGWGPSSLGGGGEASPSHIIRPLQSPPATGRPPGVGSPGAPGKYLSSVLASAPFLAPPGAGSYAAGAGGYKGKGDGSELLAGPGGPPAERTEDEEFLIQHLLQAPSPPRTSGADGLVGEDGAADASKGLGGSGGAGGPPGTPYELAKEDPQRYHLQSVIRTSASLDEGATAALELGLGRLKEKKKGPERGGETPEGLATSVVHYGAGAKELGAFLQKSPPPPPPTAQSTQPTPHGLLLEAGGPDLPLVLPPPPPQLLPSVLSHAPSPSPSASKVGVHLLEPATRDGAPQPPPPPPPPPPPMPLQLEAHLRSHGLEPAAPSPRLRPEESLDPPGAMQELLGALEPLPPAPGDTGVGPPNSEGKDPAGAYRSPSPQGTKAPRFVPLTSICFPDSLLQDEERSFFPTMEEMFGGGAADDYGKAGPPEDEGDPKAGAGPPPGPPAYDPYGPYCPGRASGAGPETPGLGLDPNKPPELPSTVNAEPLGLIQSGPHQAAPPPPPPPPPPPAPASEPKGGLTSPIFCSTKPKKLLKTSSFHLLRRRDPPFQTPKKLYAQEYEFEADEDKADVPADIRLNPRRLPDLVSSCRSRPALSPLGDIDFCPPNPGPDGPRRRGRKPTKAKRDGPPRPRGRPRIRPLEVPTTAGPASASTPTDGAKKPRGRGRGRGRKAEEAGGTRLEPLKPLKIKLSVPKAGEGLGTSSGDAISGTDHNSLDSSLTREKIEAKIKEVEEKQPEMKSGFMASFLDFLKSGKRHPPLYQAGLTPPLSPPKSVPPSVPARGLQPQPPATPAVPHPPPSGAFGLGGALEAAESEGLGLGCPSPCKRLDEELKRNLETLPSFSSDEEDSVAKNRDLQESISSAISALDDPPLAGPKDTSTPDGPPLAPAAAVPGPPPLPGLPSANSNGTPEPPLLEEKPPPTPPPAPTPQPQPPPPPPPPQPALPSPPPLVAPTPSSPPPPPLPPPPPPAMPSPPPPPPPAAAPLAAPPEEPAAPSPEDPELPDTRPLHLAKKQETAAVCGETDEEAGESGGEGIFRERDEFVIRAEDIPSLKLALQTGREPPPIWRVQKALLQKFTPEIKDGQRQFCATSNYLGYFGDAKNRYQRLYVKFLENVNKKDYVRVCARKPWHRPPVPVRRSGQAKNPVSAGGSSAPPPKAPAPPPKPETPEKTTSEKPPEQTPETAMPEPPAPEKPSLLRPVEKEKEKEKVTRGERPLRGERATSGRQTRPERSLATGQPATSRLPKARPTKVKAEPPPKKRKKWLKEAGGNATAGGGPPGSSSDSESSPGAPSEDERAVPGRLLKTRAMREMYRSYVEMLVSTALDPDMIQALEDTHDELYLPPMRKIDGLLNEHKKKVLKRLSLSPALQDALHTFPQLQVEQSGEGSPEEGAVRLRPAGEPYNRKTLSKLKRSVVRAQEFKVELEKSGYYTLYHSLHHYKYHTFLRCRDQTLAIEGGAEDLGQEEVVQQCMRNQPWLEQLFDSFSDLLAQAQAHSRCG
UniProt Q9UKL0: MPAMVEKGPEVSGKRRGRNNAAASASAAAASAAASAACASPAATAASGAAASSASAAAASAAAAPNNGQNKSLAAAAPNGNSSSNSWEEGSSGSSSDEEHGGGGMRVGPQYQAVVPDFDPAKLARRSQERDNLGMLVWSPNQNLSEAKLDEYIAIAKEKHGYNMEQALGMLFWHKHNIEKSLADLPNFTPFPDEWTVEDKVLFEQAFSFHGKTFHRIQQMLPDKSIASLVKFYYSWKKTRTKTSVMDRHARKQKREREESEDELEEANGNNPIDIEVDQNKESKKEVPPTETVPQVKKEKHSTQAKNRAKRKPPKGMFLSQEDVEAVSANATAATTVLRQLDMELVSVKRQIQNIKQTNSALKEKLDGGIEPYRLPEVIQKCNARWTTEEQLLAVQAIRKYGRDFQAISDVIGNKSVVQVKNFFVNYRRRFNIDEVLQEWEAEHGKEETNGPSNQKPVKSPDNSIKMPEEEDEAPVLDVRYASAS
UniProt Q9UMX0: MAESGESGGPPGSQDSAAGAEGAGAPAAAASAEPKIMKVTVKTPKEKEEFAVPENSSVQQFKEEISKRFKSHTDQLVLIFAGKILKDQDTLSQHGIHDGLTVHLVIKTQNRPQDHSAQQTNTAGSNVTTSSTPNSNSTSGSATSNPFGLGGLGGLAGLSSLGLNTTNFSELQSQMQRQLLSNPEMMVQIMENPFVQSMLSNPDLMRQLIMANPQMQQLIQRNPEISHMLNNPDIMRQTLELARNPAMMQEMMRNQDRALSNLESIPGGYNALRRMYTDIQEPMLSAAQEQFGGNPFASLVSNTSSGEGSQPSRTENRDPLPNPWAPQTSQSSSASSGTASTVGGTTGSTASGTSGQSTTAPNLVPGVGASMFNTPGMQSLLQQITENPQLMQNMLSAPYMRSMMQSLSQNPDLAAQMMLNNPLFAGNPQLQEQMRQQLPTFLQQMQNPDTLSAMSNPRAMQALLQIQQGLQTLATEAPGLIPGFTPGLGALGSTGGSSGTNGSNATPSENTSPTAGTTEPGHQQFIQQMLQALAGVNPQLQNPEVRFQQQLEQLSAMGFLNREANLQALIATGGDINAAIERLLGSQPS
UniProt Q9NRR5: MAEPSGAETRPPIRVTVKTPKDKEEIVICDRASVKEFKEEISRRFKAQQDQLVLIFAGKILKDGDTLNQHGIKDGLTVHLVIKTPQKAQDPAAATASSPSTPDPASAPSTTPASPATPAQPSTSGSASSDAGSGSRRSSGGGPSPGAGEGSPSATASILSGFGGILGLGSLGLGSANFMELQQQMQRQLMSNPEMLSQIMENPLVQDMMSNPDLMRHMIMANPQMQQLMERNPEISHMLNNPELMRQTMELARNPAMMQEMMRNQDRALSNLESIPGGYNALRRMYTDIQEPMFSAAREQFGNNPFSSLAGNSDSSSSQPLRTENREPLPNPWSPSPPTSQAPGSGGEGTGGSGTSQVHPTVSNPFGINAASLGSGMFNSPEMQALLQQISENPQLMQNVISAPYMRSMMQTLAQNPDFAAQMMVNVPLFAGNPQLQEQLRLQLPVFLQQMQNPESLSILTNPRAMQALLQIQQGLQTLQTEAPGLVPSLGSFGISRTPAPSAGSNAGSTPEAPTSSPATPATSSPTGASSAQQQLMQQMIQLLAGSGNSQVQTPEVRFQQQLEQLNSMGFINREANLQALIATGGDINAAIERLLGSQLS
UniProt P10244: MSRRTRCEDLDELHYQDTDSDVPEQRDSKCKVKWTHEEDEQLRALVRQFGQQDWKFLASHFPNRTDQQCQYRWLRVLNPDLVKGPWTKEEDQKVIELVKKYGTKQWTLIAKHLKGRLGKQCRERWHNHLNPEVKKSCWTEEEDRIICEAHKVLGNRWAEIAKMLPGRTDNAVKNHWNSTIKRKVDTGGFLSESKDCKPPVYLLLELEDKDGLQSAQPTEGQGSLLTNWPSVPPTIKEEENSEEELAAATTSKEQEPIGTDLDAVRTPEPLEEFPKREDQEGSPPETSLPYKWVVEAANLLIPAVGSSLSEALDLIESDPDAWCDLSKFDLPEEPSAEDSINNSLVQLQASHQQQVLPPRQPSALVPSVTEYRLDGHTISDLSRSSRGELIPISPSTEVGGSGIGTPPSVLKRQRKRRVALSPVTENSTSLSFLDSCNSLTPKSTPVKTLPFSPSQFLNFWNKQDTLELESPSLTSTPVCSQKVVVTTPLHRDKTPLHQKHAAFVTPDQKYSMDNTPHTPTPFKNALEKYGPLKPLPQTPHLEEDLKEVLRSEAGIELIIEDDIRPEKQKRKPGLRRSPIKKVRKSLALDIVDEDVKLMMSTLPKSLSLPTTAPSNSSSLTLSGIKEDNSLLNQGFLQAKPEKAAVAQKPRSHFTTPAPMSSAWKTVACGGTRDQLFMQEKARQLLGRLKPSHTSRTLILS

target: GFP-ZMYM4 (human) (UniProt Q5VZL5); experiment: affinity purification with mass spectrometry; extracts (ELB buffer, 120 mM NaCl, 0.2% NP-40) of HEK293T cells stably expressing the GFP fusion bait bound to magnetic GFP-trap beads; on-bead trypsin digestion, LC-MS/MS; cells expressing only GFP as control; three independent experiments

binding, binds:
PRR12, endogenous (from UniProt Q9ULL5 1-2036)
RCOR1, endogenous (from UniProt Q9UKL0 1-485)
UBQLIN1, endogenous (from UniProt Q9UMX0 1-589)
UBQLN4, endogenous (from UniProt Q9NRR5 1-601)

target: GFP-B-MYB (human) (UniProt P10244); experiment: as above

binding, binds:
LIN54, endogenous (from UniProt Q6MZP7 1-749)
zinc finger MYM-type protein 4 (ZMYM4), endogenous (from UniProt Q5VZL5 1-1548)
